Reference: paper PMC7362500

Target: PD-L1 ICD (intracellular domain)
Assay: co-IP; PD-L1 with fragments of USP22 (Fig. 3d) and USP22 with fragments of PD-L1 (Fig. 3e); cells and antibodies not stated

B1: USP22-HA (Ubiquitin Specific Peptidase 22) (enzyme, UniProt Q9UPT9 1-525)
chain: MVSRPEPEGEAMDAELAVAPPGCSHLGSFKVDNWKQNLRAIYQCFVWSGTAEARKRKAKSCICHVCGVHLNRLHSCLYCVFFGCFTKKHIHEHAKAKRHNLAIDLMYGGIYCFLCQDYIYDKDMEIIAKEEQRKAWKMQGVGEKFSTWEPTKRELELLKHNPKRRKITSNCTIGLRGLINLGNTCFMNCIVQALTHTPLLRDFFLSDRHRCEMQSPSSCLVCEMSSLFQEFYSGHRSPHIPYKLLHLVWTHARHLAGYEQQDAHEFLIAALDVLHRHCKGDDNGKKANNPNHCNCIIDQIFTGGLQSDVTCQVCHGVSTTIDPFWDISLDLPGSSTPFWPLSPGSEGNVVNGESHVSGTTTLTDCLRRFTRPEHLGSSAKIKCSGCHSYQESTKQLTMKKLPIVACFHLKRFEHSAKLRRKITTYVSFPLELDMTPFMASSKESRMNGQYQQPTDSLNNDNKYSLFAVVNHQGTLESGHYTSFIRQHKDQWFKCDDAIITKASIKDVLDSEGYLLFYHKQFLEYE
binding: binds

These are yes or no findings as the source states them, for the method shown. Binding seen in cells or lysates may run through a third protein. Binding calls can cover weak binding; strength is not graded here. Where a sequence is shown, tags or fusion partners need not be part of it.
